Literature values, collected in patent US20200315965A1, “NANOEMULSION CONCENTRATE FORMULATIONS AND METHODS” (priority 2019, published 2020).
Some of these results come from one statement about several compounds together.

Details: clinical studies, as low as

For `C=C(C)[C@@H]1CCC(C)=C[C@H]1c1c(O)cc(CCCCC)cc1O` [CBD, cannabidiol], the oral bioavailability is given as 5-10%.
